Assay results as given in article PMC7946307.
Results are given in words; binding and its absence hold for the method and conditions named. In cells and extracts the contact can be indirect. A result given as binding can be weak or reduced; the word gives no strength.

Columns and labels:
[1] = biological target: T1, TDRD1, endogenous in mouse testis (mouse (endogenous in testis)) (UniProt Q99MV1); experiment: co-IP; endogenous proteins from 2 pairs of P21 or P28 mouse testes (control or Mov10l1^fl/yama Ngn3-Cre) lysed in RIPA buffer (10 mM Tris pH 8.0, 140 mM NaCl, 1% Triton X-100, 0.1% deoxycholate, 0.1% SDS, 1 mM EDTA); 1-2 ug primary antibody, protein G Dynabeads, 4 washes in RIPA; immunoblot
T1 sequence: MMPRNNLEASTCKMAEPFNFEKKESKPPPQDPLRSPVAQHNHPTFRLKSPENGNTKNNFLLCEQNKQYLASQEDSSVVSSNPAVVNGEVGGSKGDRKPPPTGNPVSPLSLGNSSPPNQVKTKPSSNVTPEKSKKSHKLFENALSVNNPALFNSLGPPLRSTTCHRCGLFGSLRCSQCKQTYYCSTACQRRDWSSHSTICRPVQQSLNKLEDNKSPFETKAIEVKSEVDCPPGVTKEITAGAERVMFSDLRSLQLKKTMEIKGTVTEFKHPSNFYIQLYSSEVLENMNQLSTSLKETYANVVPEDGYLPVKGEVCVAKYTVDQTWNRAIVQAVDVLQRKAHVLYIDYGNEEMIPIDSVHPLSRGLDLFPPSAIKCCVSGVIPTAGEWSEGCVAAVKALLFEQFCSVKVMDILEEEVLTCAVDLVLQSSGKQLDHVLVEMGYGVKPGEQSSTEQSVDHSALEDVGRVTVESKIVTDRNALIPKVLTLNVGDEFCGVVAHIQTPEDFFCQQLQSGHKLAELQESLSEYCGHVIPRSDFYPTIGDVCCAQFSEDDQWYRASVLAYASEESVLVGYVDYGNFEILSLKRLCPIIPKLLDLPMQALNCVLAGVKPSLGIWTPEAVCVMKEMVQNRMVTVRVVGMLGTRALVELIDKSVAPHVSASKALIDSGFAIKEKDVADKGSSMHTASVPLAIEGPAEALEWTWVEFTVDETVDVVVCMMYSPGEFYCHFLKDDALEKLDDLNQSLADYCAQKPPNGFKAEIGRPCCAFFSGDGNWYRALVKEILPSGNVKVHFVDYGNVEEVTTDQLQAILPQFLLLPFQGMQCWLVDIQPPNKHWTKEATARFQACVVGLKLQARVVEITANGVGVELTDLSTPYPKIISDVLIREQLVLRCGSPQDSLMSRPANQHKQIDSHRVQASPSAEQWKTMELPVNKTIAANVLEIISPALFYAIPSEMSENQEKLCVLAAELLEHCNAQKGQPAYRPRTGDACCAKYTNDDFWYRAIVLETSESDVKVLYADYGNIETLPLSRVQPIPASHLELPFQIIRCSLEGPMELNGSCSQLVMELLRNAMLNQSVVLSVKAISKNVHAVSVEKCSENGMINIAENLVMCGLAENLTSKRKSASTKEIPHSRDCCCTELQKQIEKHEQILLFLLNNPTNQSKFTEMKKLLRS

[2] = biological target: T2, PLD6, endogenous in mouse testis (mouse (endogenous in testis)) (UniProt Q5SWZ9); experiment: as above
T2 sequence: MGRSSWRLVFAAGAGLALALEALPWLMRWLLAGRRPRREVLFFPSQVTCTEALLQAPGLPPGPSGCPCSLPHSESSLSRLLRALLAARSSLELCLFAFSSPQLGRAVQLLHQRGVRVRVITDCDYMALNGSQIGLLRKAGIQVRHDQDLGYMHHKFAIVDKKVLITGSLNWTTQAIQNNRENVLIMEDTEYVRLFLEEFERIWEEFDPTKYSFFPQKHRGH

| Substance | binding [1] | binding [2] |
| --- | --- | --- |
| MOV10L1 (wild type, endogenous in mouse testis) | binds | binds |
| MOV10L1^V229E (yama mutant protein, endogenous in Mov10l1^fl/yama Ngn3-Cre mouse testis) |  | no binding |
